In this assay the target is activated transcription factor 6 (ATF6) (human (in lysate of human HCC cell lines)) (UniProt P18850). Kind of assay: co-IP; CoIP using ATF6; cells lysed in 1% NP40, pre-blocked with 50% protein A/G agarose, primary antibody overnight at 4 °C, protein A/G agarose, washed with lysis solution, WB analysis; cell line not stated.

Chains of the proteins cited; added tags and fusions are not shown.
UniProt P18850: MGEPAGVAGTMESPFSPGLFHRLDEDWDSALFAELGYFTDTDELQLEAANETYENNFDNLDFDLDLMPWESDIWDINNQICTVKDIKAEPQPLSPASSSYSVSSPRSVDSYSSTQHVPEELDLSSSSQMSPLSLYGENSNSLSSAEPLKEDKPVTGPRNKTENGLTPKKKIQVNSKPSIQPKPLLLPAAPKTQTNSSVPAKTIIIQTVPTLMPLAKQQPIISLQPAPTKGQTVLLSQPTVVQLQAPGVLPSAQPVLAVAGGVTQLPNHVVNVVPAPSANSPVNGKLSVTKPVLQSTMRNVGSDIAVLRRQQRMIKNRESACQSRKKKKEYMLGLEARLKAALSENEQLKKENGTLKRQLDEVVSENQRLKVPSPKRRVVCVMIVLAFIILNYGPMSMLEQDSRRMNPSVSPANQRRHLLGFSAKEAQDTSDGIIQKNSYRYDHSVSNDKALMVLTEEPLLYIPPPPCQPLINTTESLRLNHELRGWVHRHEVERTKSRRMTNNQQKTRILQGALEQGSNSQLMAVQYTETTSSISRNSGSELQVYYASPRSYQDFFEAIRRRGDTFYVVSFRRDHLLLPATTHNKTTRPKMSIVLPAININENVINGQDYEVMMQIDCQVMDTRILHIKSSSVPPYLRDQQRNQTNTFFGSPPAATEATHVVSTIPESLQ

Results are given in words; binding and its absence hold for the method and conditions named. Binding seen in cells or lysates may run through a third protein. Some entries that bind do so weakly or less than the wild type.

B1: NFYB subunit of the NF-Y complex (protein, UniProt P25208 1-207)
chain: MTMDGDSSTTDASQLGISADYIGGSHYVIQPHDDTEDSMNDHEDTNGSKESFREQDIYLPIANVARIMKNAIPQTGKIAKDAKECVQECVSEFISFITSEASERCHQEKRKTINGEDILFAMSTLGFDSYVEPLKLYLQKFREAMKGEKGIGGAVTATDGLSEELTEEAFTNQLPAGLITTDGQQQNVMVYTTSYQQISGVQQIQFS
B1: the binding result was “binds”.

B2: NFYC subunit of the NF-Y complex (protein, UniProt Q13952 1-458)
chain: MSTEGGFGGTSSSDAQQSLQSFWPRVMEEIRNLTVKDFRVQELPLARIKKIMKLDEDVKMISAEAPVLFAKAAQIFITELTLRAWIHTEDNKRRTLQRNDIAMAITKFDQFDFLIDIVPRDELKPPKRQEEVRQSVTPAEPVQYYFTLAQQPTAVQVQGQQQGQQTTSSTTTIQPGQIIIAQPQQGQTTPVTMQVGEGQQVQIVQAQPQGQAQQAQSGTGQTMQVMQQIITNTGEIQQIPVQLNAGQLQYIRLAQPVSGTQVVQGQIQTLATNAQQGQRNASQGKPRRCLKETLQITQTEVQQGQQQFSQFTDGQRNSVQQARVSELTGEAEPREVKATGNSTPCTSSLPTTHPPSHRAGASCVCCSQPQQSSTSPPPSDALQWVVVEVSGTPNQLETHRELHAPLPGMTSLSPLHPSQQLYQIQQVTMPAGQDLAQPMFIQSANQPSDGQAPQVTGD
With B2, the binding entry is recorded as “binds”.

The values above are taken from publication PMC10879213.
